{"source": "patent US20260124200A1", "about": "“METHOD OF TREATING NEURODEGENERATIVE DISEASES” (The Board of Trustees of the University of Illinois, priority 2022, published 2026)", "key": {"[1]": {"experiment": "Ferrozine assay: reduction of precomplexed Fe(III) to Fe(II) under reducing conditions", "assay_type": "physicochemical", "conditions": "for conversion of complexed Fe(III) to Fe(II): Fe(III) precomplexed in HEPES buffer, ferrozine and reducing agents, absorbance 562 nm; for affinity of complexation with iron: precomplexed with iron (III), strong reducing agents and ferrozine dye"}, "[2]": {"experiment": "DCF fluorometric assay of ROS produced by Fe(II)"}}, "data": [{"smiles": "NCCc1ccc(O)c(O)c1", "note": "[dopamine]", "values": [{"measurement": "conversion of complexed Fe(III) to Fe(II)", "setting": "[1]", "result": "robust conversion to Fe(II)"}, {"measurement": "affinity of complexation with iron", "setting": "[1]", "result": "does not bind strongly to Fe(II)"}]}, {"smiles": "CC(C)c1cccc(=O)c(O)c1", "note": "[hinokitiol]", "values": [{"measurement": "conversion of complexed Fe(III) to Fe(II)", "setting": "[1]", "result": "significantly reduced the Fe(III) conversion"}, {"measurement": "affinity of complexation with iron", "setting": "[1]", "result": "strong affinity to bind to Fe(III)"}, {"measurement": "ROS production induced by Fe(II)", "setting": "[2]; DCF probe, compared to dopamine and DFP", "result": "greatly reduced"}, {"measurement": "dopamine oxidation / ROS production (DCF)", "setting": "[2]; dopamine precomplexed with Fe(II), small molecule added after one hour", "result": "mitigating the dopamine oxidation"}]}, {"smiles": "Cc1c(O)c(=O)ccn1C", "note": "[DFP, deferiprone]", "values": [{"measurement": "conversion of complexed Fe(III) to Fe(II)", "setting": "[1]", "result": "robust conversion to Fe(II)"}]}]}
